These are yes or no findings as the source states them, for the method shown. Some binding calls cover weakened binding; strength is not graded here. Tags and fused reporters may be left off the sequences shown.
Biological target: T1, His-tagged Arabidopsis thaliana full-length UVR8 (UV … LOCUS 8) (Arabidopsis thaliana), Q9FN03
T1 chain: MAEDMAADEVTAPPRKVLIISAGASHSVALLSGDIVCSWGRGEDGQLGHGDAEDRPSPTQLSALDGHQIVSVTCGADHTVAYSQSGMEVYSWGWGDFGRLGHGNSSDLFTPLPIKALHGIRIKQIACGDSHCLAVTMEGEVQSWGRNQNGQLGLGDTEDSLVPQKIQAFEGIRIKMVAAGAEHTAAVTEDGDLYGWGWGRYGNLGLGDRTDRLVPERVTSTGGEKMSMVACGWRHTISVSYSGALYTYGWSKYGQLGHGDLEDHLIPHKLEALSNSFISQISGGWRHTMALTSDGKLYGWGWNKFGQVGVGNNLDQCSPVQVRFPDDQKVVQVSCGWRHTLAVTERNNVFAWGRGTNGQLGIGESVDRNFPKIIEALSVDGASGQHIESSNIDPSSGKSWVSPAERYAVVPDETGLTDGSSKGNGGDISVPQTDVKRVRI
Assay: SDS-PAGE without boiling
Details: remark: other sources report otherwise

B1: His-tagged Arabidopsis thaliana full-length UVR8 (UV … LOCUS 8), Q9FN03 1-440 (natural protein)
chain: T1 chain
- binding: binds
